The values that follow come from the supplement of paper PMC9233669.

Variants at the floor of the assay are shown more often than the library holds them.

The test system of one data set is biotinyl-Ile-oxazolone. Briefly: self-aminoacylation, catalytic enhancement (BIO) (fold over background); higher = more active; k-Seq, kA / k0A0; sequences stand for … in GGGAAUGGAUCCACAUCUACGAAUUC…UUCACUGCAGACUUGACGAAGCUG
Summed up:
(§1)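 The uncatalyzed rate is the low-activity peak of a bimodal Gaussian fit, and catalytic enhancement is median kA divided by it. The kA values came from pseudo-first-order fits, with 1000 bootstraps, of per-sequence fraction reacted measured by streptavidin capture, triplicate qPCR and Illumina sequencing. Mutagenized RNA pools with a 21-nt variable region (0.43 μM) were reacted with each biotinyl-aminoacyl-oxazolone at 2–1250 μM in 50 μL HEPES/NaCl/KCl/MgCl2/CaCl2 buffer with 5% acetonitrile, pH 6.9–7.0, for 90 minutes at room temperature.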

Another data set concerns biotinyl-Phe-oxazolone. The experiment in a line: self-aminoacylation, catalytic enhancement (BFO) (fold over background); higher = more active; k-Seq, kA / k0A0; sequences stand for … in GGGAAUGGAUCCACAUCUACGAAUUC…UUCACUGCAGACUUGACGAAGCUG
Summed up:
as §1

For a further data set, the system named is biotinyl-Met-oxazolone. The experiment in a line: self-aminoacylation, catalytic enhancement (BMO) (fold over background); higher = more active; k-Seq, kA / k0A0; sequences stand for … in GGGAAUGGAUCCACAUCUACGAAUUC…UUCACUGCAGACUUGACGAAGCUG
Summed up:
as §1

The next data set has as its system biotinyl-Trp-oxazolone. The experiment in a line: self-aminoacylation, catalytic enhancement (BWO) (fold over background); higher = more active; k-Seq, kA / k0A0; sequences stand for … in GGGAAUGGAUCCACAUCUACGAAUUC…UUCACUGCAGACUUGACGAAGCUG
Summed up: as §1

The test system of a further data set is biotinyl-Leu-oxazolone. The experiment in a line: self-aminoacylation, catalytic enhancement (BLO) (fold over background); higher = more active; k-Seq, kA / k0A0; sequences stand for … in GGGAAUGGAUCCACAUCUACGAAUUC…UUCACUGCAGACUUGACGAAGCUG
Summed up: as §1

The test system of a further data set is biotinyl-Val-oxazolone. Briefly: self-aminoacylation, catalytic enhancement (BVO) (fold over background); higher = more active; k-Seq, kA / k0A0; sequences stand for … in GGGAAUGGAUCCACAUCUACGAAUUC…UUCACUGCAGACUUGACGAAGCUG
Summed up: as §1

With “AAGUUUACUAAUAGUGGCAAG [Fam3.1 aminoacylation ribozyme variant]”, the self-aminoacylation turned out to be 0.68 in the data set on biotinyl-Ile-oxazolone; 0.824 in the data set on biotinyl-Phe-oxazolone; 0.844 in the data set with biotinyl-Met-oxazolone; 0.574 with biotinyl-Trp-oxazolone; 0.538 with biotinyl-Leu-oxazolone; 0.676 in the data set with biotinyl-Val-oxazolone.
For “AUUACCCUGGUCAUUGAGAGA [Fam2.1 aminoacylation ribozyme variant]”, the self-aminoacylation with biotinyl-Ile-oxazolone stood at 0.852; in the data set on biotinyl-Phe-oxazolone, 1.04; in the data set on biotinyl-Met-oxazolone, 0.854; in the data set on biotinyl-Trp-oxazolone, 0.648; with biotinyl-Leu-oxazolone, 0.703; in the data set on biotinyl-Val-oxazolone, 0.867.
As for “CCACACUUCAACCAAUCGCUC [Fam1B.1 aminoacylation ribozyme variant]”, the self-aminoacylation was determined as 1.27 in the data set with biotinyl-Ile-oxazolone; 0.898 in the data set on biotinyl-Phe-oxazolone; 0.967 in the data set on biotinyl-Met-oxazolone; 1.21 with biotinyl-Trp-oxazolone; 1.48 with biotinyl-Leu-oxazolone; 1.32 in the data set on biotinyl-Val-oxazolone.
For “CUACUUCAACCAAUUGGUCUG [Fam1A.1 aminoacylation ribozyme variant]”, the self-aminoacylation with biotinyl-Ile-oxazolone was found to be 0.88; in the data set on biotinyl-Phe-oxazolone it was 1.67; with biotinyl-Met-oxazolone, 0.9; with biotinyl-Trp-oxazolone, 0.957; in the data set on biotinyl-Leu-oxazolone it was 0.794; in the data set on biotinyl-Val-oxazolone, 0.89.
Take “AUACUACAAACAAUCGGUCUG [Fam1A.1 aminoacylation ribozyme variant]”: the self-aminoacylation in the data set on biotinyl-Ile-oxazolone amounted to 0.764; in the data set with biotinyl-Phe-oxazolone it was 1.36; in the data set with biotinyl-Met-oxazolone, 0.818; with biotinyl-Trp-oxazolone it was 0.838; in the data set with biotinyl-Leu-oxazolone, 0.652; in the data set with biotinyl-Val-oxazolone it was 0.886.
On to “CCACACUCCAAGCAAUUGGUC [Fam1B.1 aminoacylation ribozyme variant]”, for which the self-aminoacylation in the data set on biotinyl-Ile-oxazolone is 0.708; with biotinyl-Phe-oxazolone it was 1.13; with biotinyl-Met-oxazolone, 0.504; with biotinyl-Trp-oxazolone, 0.445; in the data set on biotinyl-Leu-oxazolone it was 0.646; with biotinyl-Val-oxazolone, 0.742.
As to “AUUACCCCGGUCAUCGAUUGA [Fam2.1 aminoacylation ribozyme variant]”, the self-aminoacylation came to 0.968 in the data set with biotinyl-Ile-oxazolone; 1.15 in the data set with biotinyl-Phe-oxazolone; 0.575 with biotinyl-Met-oxazolone; 1.16 in the data set with biotinyl-Trp-oxazolone; 0.553 in the data set with biotinyl-Leu-oxazolone; 0.907 with biotinyl-Val-oxazolone.
Take “AUUACCCUGGUCGUCGAGUAA [Fam2.1 aminoacylation ribozyme variant]”: the self-aminoacylation stood at 1.27 in the data set with biotinyl-Ile-oxazolone; 1.08 in the data set with biotinyl-Phe-oxazolone; 1.3 in the data set on biotinyl-Met-oxazolone; 0.721 with biotinyl-Trp-oxazolone; 1.68 in the data set on biotinyl-Leu-oxazolone; 1.12 in the data set with biotinyl-Val-oxazolone.
For “CUACUUUAAACAAACGGUCUG [Fam1A.1 aminoacylation ribozyme variant]”, the self-aminoacylation in the data set with biotinyl-Ile-oxazolone is 0.989; with biotinyl-Phe-oxazolone, 0.644; in the data set on biotinyl-Met-oxazolone it was 0.91; with biotinyl-Trp-oxazolone, 0.502; with biotinyl-Leu-oxazolone, 0.776; in the data set on biotinyl-Val-oxazolone, 0.905.
With “AUUACCCUGGCAAUCGAGUGA [Fam2.1 aminoacylation ribozyme variant]”, the self-aminoacylation with biotinyl-Ile-oxazolone was 2.78; with biotinyl-Phe-oxazolone it was 28.2; in the data set on biotinyl-Met-oxazolone, 4.83; in the data set on biotinyl-Trp-oxazolone, 5.92; with biotinyl-Leu-oxazolone it was 5.38; in the data set with biotinyl-Val-oxazolone it was 3.02.
As to “AUGUUGGCUAAUAGUCGCAAG [Fam3.1 aminoacylation ribozyme variant]”, the self-aminoacylation was 1.47 in the data set with biotinyl-Ile-oxazolone; 1.85 in the data set with biotinyl-Phe-oxazolone; 1.5 with biotinyl-Met-oxazolone; 1.12 in the data set with biotinyl-Trp-oxazolone; 1.3 in the data set with biotinyl-Leu-oxazolone; 1.29 with biotinyl-Val-oxazolone.
On to “CUACUUGACACAAUCGGUCUG [Fam1A.1 aminoacylation ribozyme variant]”, for which the self-aminoacylation in the data set on biotinyl-Ile-oxazolone was determined as 0.666; in the data set with biotinyl-Phe-oxazolone it was 0.667; with biotinyl-Met-oxazolone it was 0.737; with biotinyl-Trp-oxazolone, 0.418; with biotinyl-Leu-oxazolone, 0.67; in the data set with biotinyl-Val-oxazolone it was 0.744.
For “CCACACUUCUAGCAAUUGGUC [Fam1B.1 aminoacylation ribozyme variant]”, the self-aminoacylation in the data set on biotinyl-Ile-oxazolone was 0.611; with biotinyl-Phe-oxazolone, 0.539; with biotinyl-Met-oxazolone, 0.638; in the data set on biotinyl-Trp-oxazolone, 0.401; in the data set with biotinyl-Leu-oxazolone it was 0.636; in the data set with biotinyl-Val-oxazolone, 0.687.
For the sequence “AUUACCCUGGUCUUCGAGAGA [Fam2.1 aminoacylation ribozyme variant]”, the self-aminoacylation with biotinyl-Ile-oxazolone is 0.978; in the data set with biotinyl-Phe-oxazolone, 0.41; in the data set with biotinyl-Met-oxazolone it was 0.888; in the data set on biotinyl-Trp-oxazolone, 0.529; in the data set on biotinyl-Leu-oxazolone, 0.957; in the data set with biotinyl-Val-oxazolone it was 1.26.
For the sequence “CCACACUUCGAGCAAUCUGUC [Fam1B.1 aminoacylation ribozyme variant]”, the self-aminoacylation in the data set with biotinyl-Ile-oxazolone was 0.413; with biotinyl-Phe-oxazolone it was 0.369; in the data set with biotinyl-Met-oxazolone it was 0.486; in the data set on biotinyl-Trp-oxazolone it was 0.388; in the data set with biotinyl-Leu-oxazolone it was 0.303; with biotinyl-Val-oxazolone, 0.614.
With “CUACUUCAAACAAUCCGUGUG [Fam1A.1 aminoacylation ribozyme variant]”, the self-aminoacylation came out at 1.99 in the data set with biotinyl-Ile-oxazolone; 7.45 with biotinyl-Phe-oxazolone; 2.86 in the data set on biotinyl-Met-oxazolone; 2.52 in the data set on biotinyl-Trp-oxazolone; 3.84 in the data set on biotinyl-Leu-oxazolone; 1.88 with biotinyl-Val-oxazolone.
For the sequence “CCACACUUCAAGCAAUCGGUA [Fam1B.1 aminoacylation ribozyme variant]”, the self-aminoacylation is 0.961 in the data set on biotinyl-Ile-oxazolone; 1.36 in the data set with biotinyl-Phe-oxazolone; 0.886 in the data set on biotinyl-Met-oxazolone; 1.1 with biotinyl-Trp-oxazolone; 0.872 with biotinyl-Leu-oxazolone; 1.01 with biotinyl-Val-oxazolone.
Turning to “GCCCACUUCAAGCAAUCGGUC [Fam1B.1 aminoacylation ribozyme variant]”, the self-aminoacylation was found to be 1.42 in the data set on biotinyl-Ile-oxazolone; 24.1 in the data set with biotinyl-Phe-oxazolone; 1.27 in the data set on biotinyl-Met-oxazolone; 18.7 in the data set with biotinyl-Trp-oxazolone; 1.77 in the data set on biotinyl-Leu-oxazolone; 1.67 in the data set with biotinyl-Val-oxazolone.
On to “AUUACCGUGGUCAUCGAAUGA [Fam2.1 aminoacylation ribozyme variant]”, for which the self-aminoacylation in the data set on biotinyl-Ile-oxazolone turned out to be 1.06; in the data set with biotinyl-Phe-oxazolone, 0.501; in the data set on biotinyl-Met-oxazolone, 0.94; in the data set with biotinyl-Trp-oxazolone, 0.841; in the data set on biotinyl-Leu-oxazolone, 1.11; in the data set on biotinyl-Val-oxazolone, 1.05.
With “CUACUUCAAACUAUCGGUCAG [Fam1A.1 aminoacylation ribozyme variant]”, the self-aminoacylation in the data set with biotinyl-Ile-oxazolone was found to be 0.742; in the data set on biotinyl-Phe-oxazolone, 0.824; in the data set with biotinyl-Met-oxazolone, 0.704; with biotinyl-Trp-oxazolone it was 0.542; in the data set on biotinyl-Leu-oxazolone it was 0.63; with biotinyl-Val-oxazolone, 0.801.
On to “GUACUUCAAACAAUCGAUCUG [Fam1A.1 aminoacylation ribozyme variant]”, for which the self-aminoacylation was found to be 1.18 with biotinyl-Ile-oxazolone; 1.72 in the data set with biotinyl-Phe-oxazolone; 0.863 in the data set on biotinyl-Met-oxazolone; 1.64 in the data set with biotinyl-Trp-oxazolone; 0.862 in the data set on biotinyl-Leu-oxazolone; 0.987 with biotinyl-Val-oxazolone.
